Reference: the supplement of paper PMC12889115
The list shows a part of the results. Values are raw readings; no control value is given beside them.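 Primary screen: polymyxin B was added at a level permeabilizing Salmonella outer membranes while sparing inner membranes. DMSO wells, both with and without polymyxin B, established maximum growth. Plate-to-plate variation meant each plate was ranked on its own, and the lowest-OD600 compounds were selected as hits.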

Test system: Salmonella enterica serovar Typhimurium SL1344
Test: bacterial growth OD600 after 18 h with compound and polymyxin B; higher = more bacterial growth (less inhibition)
Conditions: 50 µM, Mueller-Hinton broth

Row | SMILES | bacterial growth OD600 (polymyxin B 0.75 µg/mL) | bacterial growth OD600 (polymyxin B 1 µg/mL)
1 | O=C(NCCN1Cc2ccccc2OC(c2ccccc2F)C1)c1ccncc1 (stereo unspecified) | 0.605 | 
2 | COc1ccc(OC)c(-c2cc(Cl)c3c(c2)CC(CNC(=O)c2c(F)cccc2F)O3)c1 (stereo unspecified) | 0.009 | 
3 | COCCN1C(=O)CC(CC(=O)N(CC2CC2)CC2CCCO2)(c2ccccc2F)C1=O (stereo unspecified) | 0.819 | 
4 | COc1ccc(Cl)cc1NC(=O)CCC1CCCN(Cc2nc3ccccc3[nH]2)C1 (stereo unspecified) |  | 0.879
5 | COCc1cc(CN2CCCC(CCC(=O)Nc3ccccc3F)C2)ccc1OC (stereo unspecified) |  | 0.913
6 | O=C(CN1CCCCCC1)NC1CCCc2nc(-c3cccnc3)ncc21 (stereo unspecified) | 0.968 | 
7 | COCCN1CC(C(=O)NCCCc2ccc(OC)cc2)CCC1=O (stereo unspecified) |  | 0.85
8 | CC(C)CC(=O)C(=O)N1CCC(n2nccc2NC(=O)C2CCOC2)CC1 (stereo unspecified) |  | 1.05
9 | CC(=O)N[C@@H]1c2ccccc2C2(CCN(C(=O)CCc3ccccc3)CC2)[C@H]1OCc1ccccc1 | 0.817 | 
10 | CCN(C(=O)c1cccc(F)c1F)[C@@H]1CCN(C(=O)c2cccs2)C[C@H]1O |  | 1.04
11 | C=C(C)CN(CC)C(=O)c1cc(Cn2c(C)nc3ccccc32)on1 |  | 0.932
12 | COc1ccc(CN2CC(=O)N(c3ccccc3SC)C(C)C2)cc1O (stereo unspecified) | 0.828 | 
13 | CN(CCC(O)c1ccccc1)c1nncc(-c2ccc(F)cc2)n1 (stereo unspecified) | 0.564 | 
14 | COc1cccc(CNC(=O)CCC2(Cc3ccc(Cl)cc3)CCC(=O)N2)c1OC (stereo unspecified) | 0.839 | 
15 | COCCN1C(=O)NC(Cc2ccc(F)cc2)(C2CCN(C(=O)CC3=CCCCC3)CC2)C1=O (stereo unspecified) | 0.839 | 
16 | Cc1ccccc1-n1ncc2c1CC(C)(C)CC2NC(=O)CC(F)(F)F (stereo unspecified) | 0.001 | 

Row | SMILES | bacterial growth OD600 (polymyxin B 0.75 µg/mL) | bacterial growth OD600 (polymyxin B 1 µg/mL)
17 | CCN(Cc1ccccc1)c1ccc(C(=O)N2CCCC(COC)C2)cn1 (stereo unspecified) |  | 0.887
18 | C=CCNC(=O)NCc1cccnc1N1CCN(c2ccccn2)CC1 |  | 0.96
19 | C=C(C)CN(CC)C(=O)c1coc(COc2ccc3c(c2)OCO3)n1 |  | 0.826
20 | CCc1cc(CNC(=O)c2coc(COc3ccc(F)cc3Cl)n2)on1 |  | 0.883
21 | COc1cc(OC)c(CN2CCN(CC3CCCCC3)C(CCO)C2)c(OC)c1 (stereo unspecified) |  | 0.903
22 | C[C@@H]1CN(c2ccc(C(=O)N3CCC(Cn4cccn4)CC3)cn2)C[C@H](C)O1 |  | 0.894
23 | COc1ccc(CN2CCN(C(C)C)C(CCO)C2)cc1O (stereo unspecified) |  | 0.796
24 | CCCCn1c(CN2CCC(CO)CC2)cnc1S(=O)(=O)CCCC(C)C | 0.311 | 
25 | COc1ccc(C(=O)NC2CC2)c(OC2CCN(CCCC(F)(F)F)CC2)c1 |  | 0.944
26 | C=CCOc1cccc(C(=O)NCc2nc(-c3ccccc3NC(=O)c3cc(C)oc3C)oc2C)c1 | 0.77 | 
27 | CSCCCNC(=O)c1ccc(OC2CCN(S(C)(=O)=O)CC2)c(Cl)c1 |  | 1.02
28 | CSCC[C@@H](CO)NC(=O)c1ccc2oc(Cc3ccccc3)nc2c1 | 0.852 | 
29 | O=C(/C=C/c1ccco1)N1CC[C@@H](N2CCN(CCc3ccccc3)CC2)[C@H](O)C1 |  | 0.887
30 | CCCN(CC1CCCO1)C(=O)CCc1nnc(CCc2c[nH]c3ccccc23)o1 (stereo unspecified) |  | 1.02
31 | Cc1ccc(OCCN(C)C(=O)c2ccc(OC3CCN(C(=O)C4CC4)CC3)cc2)cc1 |  | 1.25

Two entries picked at random from those above, as already listed:
Row | SMILES | bacterial growth OD600 (polymyxin B 0.75 µg/mL) | bacterial growth OD600 (polymyxin B 1 µg/mL)
7 | COCCN1CC(C(=O)NCCCc2ccc(OC)cc2)CCC1=O (stereo unspecified) |  | 0.85
28 | CSCC[C@@H](CO)NC(=O)c1ccc2oc(Cc3ccccc3)nc2c1 | 0.852 | 
